The values that follow are results of earlier work, collected in patent US20070141182A1, “Combination of multiple nonteroidal antiinflammatory drugs and muscle relaxants for local treatment of musculoskeletal pain” (priority 2005, published 2007).

Molecules are shown by their SMILES.

The conditions of the series: human skin, Franz diffusion cell.

In the case of `CN1[C@@H]2C[C@@H](OC(=O)[C@H](CO)c3ccccc3)C[C@H]1[C@@H]1O[C@@H]12` [scopolamine, Scopolamine], the “transport rate from lecithin gel relative to aqueous solution at same conc.” value was “about one order of magnitude higher”.
